# Record: PubChem BioAssay AID1259405 (NCATS, 2018)
# Aim: 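Knock-downs that lift recombinant protein yield in hamster ovary cells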 (primary screen)
# System: Chinese hamster CHO-K1 ovary cells with stable secreted eGFP expression
# Reagent: single siRNA against mouse genes, 0.8 pmol siRNA per well (2 µl of 400 nM stock)
# Time to read-out: 3 days
# Measured: 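Percent of the per-plate non-targeting control median for intracellular GFP per well by laser scanning cytometry and for cell viability by ATP luminescence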
# Scale: GFP, % of control: higher = more GFP per well, higher productivity; viability (ATP), % of control: higher = more viable cells (more ATP)
# Call rule: 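a knock-down is called active if GFP reaches 120% or more of non-targeting control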
# Shown is an unselected part of about 50,000 deposited reagents. About 4,000 of all reagents (8%) count as active. 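Mouse siRNA library applied to hamster cells; one well for each siRNA.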 Unmarked entries are inactive. The numbers tell different reagents against one gene apart.
gene knocked down,reagent,"GFP, % of control","viability (ATP), % of control"
Srsf12,1,106,92.2
Srsf12,2,73.8,56.6
Srsf12,3,96.4,78.1
Cep70,1,63.3,58
Cep70,2,63.5,82.1
Cep70,3,59.4,66
Raf1,1,67.6,66.8
Ssh2,1,100,74.2
Ssh2,2,55.2,69.4
Ssh2,3,116,71.7
Hsd3b1,1,81.2,72
Hsd3b1,2,95.3,72.9
Zfp781b,1,51.6,66.1
Zfp781b,2,46.4,51.9
Zfp781b,3,114,117
Aurkaip1,1,122 (active),86.2
Aurkaip1,2,76.9,79.3
Chchd2l2,1,56.1,57.5
Chchd2l2,2,70.4,40
Chchd2l2,3,91.9,78.5
Pdcd2l,1,128 (active),95.7
Pdcd2l,2,126 (active),110
Pdcd2l,3,82.1,90
Fkbp11,1,108,103
Fkbp11,2,131 (active),108
Fkbp11,3,67.2,71.4
Tm4sf4,1,72.9,64.4
Tm4sf4,2,96.1,101
Tm4sf4,3,96.3,80.7
Bcl9l,1,90.6,75.7
Bcl9l,2,66.7,94.7
Bcl9l,3,162 (active),147
Pcsk1n,1,51,71.9
Pcsk1n,2,64,81.3
Pcsk1n,3,95.2,97.2
Cd5l,1,89,56.6
Cd5l,2,65,62.8
Cd5l,3,98.7,66.5
Usp42,1,83.5,58.4
Usp42,2,74.9,91
Usp42,3,93.3,88.9
Irf2bp1,1,51.2,64.7
Irf2bp1,2,89,66.7
Irf2bp1,3,85.7,55.8
Myo1h,1,89.9,92.5
Myo1h,2,81.3,78.3
Myo1h,3,39.2,53.4
Xpo1,1,123 (active),96.5
Xpo1,2,84.6,54.4
Xpo1,3,81.3,69.3
Pitpnm2,1,57.5,49.5
Pitpnm2,2,80.7,102
Pitpnm2,3,72.9,67.7
Foxd1,1,40.8,94.1
Foxd1,2,76,63
Dok1,1,80.7,47.1
Dok1,2,127 (active),93.4

Ordered by “viability (ATP), % of control” (high to low): some entries from above.
gene knocked down,reagent,"GFP, % of control","viability (ATP), % of control"
Pitpnm2,2,80.7,102
Xpo1,1,123 (active),96.5
Foxd1,1,40.8,94.1
Myo1h,1,89.9,92.5
Myo1h,2,81.3,78.3
Xpo1,3,81.3,69.3
Pitpnm2,3,72.9,67.7
Xpo1,2,84.6,54.4
Myo1h,3,39.2,53.4
Pitpnm2,1,57.5,49.5
